Results are given in words; binding and its absence hold for the method and conditions named. Some entries that bind do so weakly or less than the wild type.

The chains behind the UniProt entries cited, without tags or fusion partners. Where a name states a change or a piece, a line headed by the entry shows the natural chain unless it says otherwise.
UniProt P11717: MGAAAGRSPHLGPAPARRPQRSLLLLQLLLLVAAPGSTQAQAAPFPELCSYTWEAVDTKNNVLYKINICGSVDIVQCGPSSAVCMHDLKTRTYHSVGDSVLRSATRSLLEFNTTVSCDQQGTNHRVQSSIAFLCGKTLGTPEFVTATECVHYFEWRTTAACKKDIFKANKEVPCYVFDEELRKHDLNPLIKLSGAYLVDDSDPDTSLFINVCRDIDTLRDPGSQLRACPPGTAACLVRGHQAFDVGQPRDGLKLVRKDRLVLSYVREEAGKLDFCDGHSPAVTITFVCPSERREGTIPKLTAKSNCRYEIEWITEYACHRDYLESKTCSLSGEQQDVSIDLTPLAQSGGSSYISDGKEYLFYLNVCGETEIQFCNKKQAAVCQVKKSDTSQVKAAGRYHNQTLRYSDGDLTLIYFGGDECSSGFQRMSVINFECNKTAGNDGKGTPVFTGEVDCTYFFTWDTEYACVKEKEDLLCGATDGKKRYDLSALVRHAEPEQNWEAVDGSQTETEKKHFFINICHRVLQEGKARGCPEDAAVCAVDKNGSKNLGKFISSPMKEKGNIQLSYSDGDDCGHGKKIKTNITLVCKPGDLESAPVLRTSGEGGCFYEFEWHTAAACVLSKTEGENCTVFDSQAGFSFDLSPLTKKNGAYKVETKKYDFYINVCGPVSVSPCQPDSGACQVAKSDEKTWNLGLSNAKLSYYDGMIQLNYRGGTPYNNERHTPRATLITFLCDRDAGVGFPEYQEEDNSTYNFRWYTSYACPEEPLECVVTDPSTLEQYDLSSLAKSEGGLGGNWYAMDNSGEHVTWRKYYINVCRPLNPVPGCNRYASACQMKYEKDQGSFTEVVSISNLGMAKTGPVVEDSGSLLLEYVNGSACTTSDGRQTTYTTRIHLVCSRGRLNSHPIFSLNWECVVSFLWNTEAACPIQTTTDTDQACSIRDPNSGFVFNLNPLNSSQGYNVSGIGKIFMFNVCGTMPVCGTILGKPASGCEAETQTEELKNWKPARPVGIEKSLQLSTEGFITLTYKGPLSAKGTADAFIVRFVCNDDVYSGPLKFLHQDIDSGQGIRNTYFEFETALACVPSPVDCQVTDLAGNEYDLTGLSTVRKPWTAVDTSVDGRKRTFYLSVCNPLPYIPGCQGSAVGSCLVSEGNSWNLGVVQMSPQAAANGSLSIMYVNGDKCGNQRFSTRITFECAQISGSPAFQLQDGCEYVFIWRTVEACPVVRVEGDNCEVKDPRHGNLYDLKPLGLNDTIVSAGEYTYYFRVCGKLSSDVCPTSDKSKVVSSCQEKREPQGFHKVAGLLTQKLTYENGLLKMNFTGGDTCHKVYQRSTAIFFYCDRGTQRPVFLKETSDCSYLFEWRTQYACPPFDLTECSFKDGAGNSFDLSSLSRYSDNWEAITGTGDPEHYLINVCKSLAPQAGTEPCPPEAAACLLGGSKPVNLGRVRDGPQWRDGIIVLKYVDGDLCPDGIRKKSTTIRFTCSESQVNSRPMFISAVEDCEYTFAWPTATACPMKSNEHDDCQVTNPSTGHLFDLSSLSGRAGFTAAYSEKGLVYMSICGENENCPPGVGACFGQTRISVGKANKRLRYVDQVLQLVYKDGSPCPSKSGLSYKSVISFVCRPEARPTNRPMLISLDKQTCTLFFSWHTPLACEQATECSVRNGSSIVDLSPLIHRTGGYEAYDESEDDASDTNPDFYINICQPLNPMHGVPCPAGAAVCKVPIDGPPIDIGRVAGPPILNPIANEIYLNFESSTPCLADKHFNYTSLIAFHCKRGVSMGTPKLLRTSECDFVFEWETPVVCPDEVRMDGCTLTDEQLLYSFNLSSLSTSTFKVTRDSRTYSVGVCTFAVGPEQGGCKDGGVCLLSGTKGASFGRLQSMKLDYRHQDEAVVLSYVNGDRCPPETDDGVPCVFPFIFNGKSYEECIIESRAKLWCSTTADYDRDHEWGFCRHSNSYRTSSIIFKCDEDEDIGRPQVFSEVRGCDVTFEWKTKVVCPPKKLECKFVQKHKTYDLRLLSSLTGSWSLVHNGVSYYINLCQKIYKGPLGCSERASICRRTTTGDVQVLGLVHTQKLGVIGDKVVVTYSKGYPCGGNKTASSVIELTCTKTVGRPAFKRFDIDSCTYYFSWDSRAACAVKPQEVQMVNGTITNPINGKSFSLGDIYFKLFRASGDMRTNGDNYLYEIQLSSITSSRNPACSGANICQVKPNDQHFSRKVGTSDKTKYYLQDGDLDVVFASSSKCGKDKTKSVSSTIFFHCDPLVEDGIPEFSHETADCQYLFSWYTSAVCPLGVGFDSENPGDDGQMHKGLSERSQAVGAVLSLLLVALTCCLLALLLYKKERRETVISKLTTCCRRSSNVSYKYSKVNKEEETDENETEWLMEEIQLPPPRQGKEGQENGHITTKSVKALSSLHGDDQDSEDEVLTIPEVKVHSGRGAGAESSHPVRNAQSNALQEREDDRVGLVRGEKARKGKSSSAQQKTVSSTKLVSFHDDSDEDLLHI

The experiment has as its target recombinant human IGF2R extracellular domain protein (human) (UniProt P11717). Nature of the experiment: phage ELISA on recombinant human IGF2R protein. (In general: An ELISA detects its analyte on a solid surface through an enzyme-linked reagent.)
For KASGSPSGFWPS [SEQ ID NO 5], the binding result is given as “binds”. Then SGVYKVAYDGQH [SEQ ID NO 4], with “binds”. Then HSFKWLDSPRLR [SEQ ID NO 3], with “binds”; and GLHTSALSDLH [SEQ ID NO 8], with “binds”; and VHWDFRQWWQPS [Phage No. 431], with “binds”. Then SGVYKVAYDWQH [SEQ ID NO 10], with “binds”; and GFPTRFEALSSN [SEQ ID NO 1], with “binds”; and RRVDKVQYDRQH [SEQ ID NO 7], with “binds”. For HTSSLWHLFRST [SEQ ID NO 9], the binding entry is given as “binds”.

GLHTSATNLYLH [SEQ ID NO 2]: the binding result was “binds”.

For the origin of these results see patent US20170101442A1.
